Test results from article PMC5312596, “A novel Pfs38 protein complex on the surface of Plasmodium falciparum blood-stage merozoites” (Malaria Journal, 2017).

T1: recombinant Pfs38 (6-Cys domain, aa 153–328) (Plasmodium falciparum) (UniProt Q8I423)
T1 sequence: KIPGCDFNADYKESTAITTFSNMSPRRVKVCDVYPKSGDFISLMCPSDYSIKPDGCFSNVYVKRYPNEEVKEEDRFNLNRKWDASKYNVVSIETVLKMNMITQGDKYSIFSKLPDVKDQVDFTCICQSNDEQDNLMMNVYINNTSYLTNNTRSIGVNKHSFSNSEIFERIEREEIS

B1: recombinant Pfs38 (6-Cys domain, aa 153–328) (domain or fragment)
chain: T1 sequence
notes: Pfs38, Plasmodium falciparum 6-Cys protein; 6-Cys domain aa 153-328, amplified from a codon-optimised synthetic gene (aa 22-328) and cloned in pET28b between NcoI and XhoI; Cloning in pET28b between NcoI and XhoI would give a C-terminal His6 (surmised); The forward primer adds a few residues (Met-Gly-Ser) before the insert (surmised from the primer); also called rPfs38

Columns and labels:
[1] = target: T1, recombinant Pfs38 (6-Cys domain, aa 153–328) (Plasmodium falciparum); test: ELISA; Pfs38 coated at 2 µg/mL overnight at 4 °C; recombinant partners added at 2, 5, 10 and 20 µg/ml for 2 h; detected with polyclonal antibody against the added protein; both purified
[2] = target: PfMLH (Plasmodium falciparum); test: far-Western, overlay or dot blot; 1-5 µg recombinant protein separated by SDS-PAGE, blotted, denatured and renatured; membrane incubated with 2 µg/mL purified GLURP R2, Pfs38 or SERA-5 in 100 mM NaCl, 20 mM Tris pH 7.6, 0.5 mM EDTA, 10% glycerol, 1 mM DTT, 2 h at RT; detected with antisera to the soluble protein; both purified
[3] = target: recombinant Pfs12 (aa 26–323) (Plasmodium falciparum); test: as above

Molecule | binding [1] | binding [2] | binding [3]
PfMLH (Plasmodium falciparum) | no binding |  | 
recombinant Pfs12 (aa 26–323) (Plasmodium falciparum) (domain or fragment) | binds |  | 
B1 |  | no binding (tested: 2 µg/mL) | binds

These are yes or no findings as the source states them, for the method shown. For some of these results: A result given as binding can be weak or reduced; the word gives no strength.
